Data taken from PubChem BioAssay AID463183 (Sanford-Burnham Center for Chemical Genomics, 2010).
Some of the results follow. The main result of the screen is listed elsewhere. These columns were measured beside it and carry no call. The list favours compounds with an active or inconclusive main result.

Assay: blockers of oleate-driven lipid droplets in liver cells – imaging, AML12 mouse hepatocytes, single concentration, high-content, confirmation (AID 463183);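 further: cells counted after overnight compound exposure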
Settings: BODIPY lipid droplet imaging, measured here: cell count, cytotoxicity, at 5.2 µM, droplets induced with 100 µM oleic acid

Row | Structure (SMILES) | cell count [cells]
1 | CCOC(=O)C(NC(=O)c1ccccc1)(OCc1ccccc1)C(F)(F)F (centres undefined) | 1580
2 | COc1cccc(NC(=O)CSc2nc3ccccc3nc2N2CCCC2)c1 | 1660
3 | O=C(Cc1cccc2ccccc12)Nc1c(F)cccc1F | 1640
4 | O=Nc1c(-c2c(O)[nH]c3cc(Br)ccc23)[nH]c2ccccc12 | 1490
5 | Cc1ccc(C(=O)Nc2ccccc2C(=O)NCc2cccnc2)cc1 | 1660
6 | N/C(=N/O)c1nc(N2CCCC2)nc(N(c2ccccc2)c2ccccc2)n1 | 1610
7 | COc1ccc(NC(=O)Cc2c(Sc3ccccc3)c3ccccc3n2C)cc1 | 1610
8 | CC(C)Oc1ccc(C(=O)OC(C)C(=O)NC2CCCCC2C)cc1 (centres undefined) | 1560
9 | CCOc1ccc(CCNC(=O)CS(=O)Cc2nc(-c3ccc(OC)c(OC)c3)oc2C)cc1OCC (centres undefined) | 1550
10 | O=c1c(C/C=C/c2ccccc2)c(O)ccn1CCc1c[nH]c2ccccc12 | 1600
11 | CCCCN1C(=O)/C(=C/C=C2\Oc3ccccc3N2CC)SC1=S | 1610
12 | CCCCN(CCCNC(=O)Cn1nc(CC)n2c(cc3sc(C)cc32)c1=O)Cc1ccccc1 | 1620
13 | CC(C)(C)c1ccc(-c2nnc(SCC(=O)Nc3sc4c(c3C#N)CCCC4)o2)cc1 | 1630
14 | Cc1ccc(-n2cccc2/C=C2/NC(=O)N(CC(=O)Nc3cccc(C)c3)C2=O)cc1 | 1610
15 | CCCOc1ccc(CNC(=O)c2ccc3nc(N4CCOCC4)sc3c2)cc1 | 1640
16 | COc1ccc(OC)c(CNC(=O)CCCc2cn(C)c3ccccc23)c1 | 1490
17 | CC(C)c1cc(C(=O)N2CCCC(CCC(=O)NCc3ccccc3F)C2)n(C)n1 (centres undefined) | 1580
18 | O=[N+]([O-])c1cc(Cl)ccc1N1CCN(c2cccc(C(F)(F)F)c2)CC1 | 1650
19 | COc1ccc(S(=O)(=O)N(CC(=O)N2CCCCCC2)c2ccccc2OC)cc1 | 1670
20 | CCOC(=O)C1CCN(C(=O)C2(NC(=O)Nc3ccc(F)cc3F)CCCCC2)CC1 | 1680

Row | Structure (SMILES) | cell count [cells]
21 | O=C(Nc1nc(-c2cccs2)c(-c2cccs2)s1)C1CCCC1 | 1680
22 | Cc1nc(Nc2ccc(O)cc2)c2c3c(sc2n1)CCCC3 | 1600
23 | CC1CC(C)CN(C(=O)c2ccc3c(c2NCCO)C(=O)c2ccccc2C3=O)C1 (centres undefined) | 1570
24 | CCOc1ccc(-c2nonc2NC(=O)c2ccco2)cc1 | 1670
25 | c1ccc(-c2csc(NNC3=NCCCCC3)n2)cc1 | 1560
26 | CC(Sc1nnc(Nc2ccccc2)s1)C(=O)Nc1nc(-c2ccccc2)cs1 (centres undefined) | 1560
27 | CCOc1ccc(CCNC(=O)CN2C(=O)NC(CCSC)C2=O)cc1OCC (centres undefined) | 1590
28 | Cc1ccc(CNC(=O)c2ccc(N3CCC4(CC3)CC(c3ccccc3)=NO4)c(NC(=O)c3ccc(Br)cc3)c2)cc1 | 1600
29 | COc1cccc(N=Nc2ccc3ccccc3c2O)c1 | 1490
30 | CCCCSCCCNC(=O)c1ccc2c(c1)N(CC)C(=O)c1ccccc1S2=O (centres undefined) | 1560
31 | CCc1ccc(OCc2ccc(C(=O)O)o2)cc1 | 1560
32 | COc1cc2ncnc(NCc3ccccc3Cl)c2cc1OC | 862
33 | Cc1cccc(NC(=O)Cn2cc(C(=O)C3CC3)c3ccccc32)c1 | 1620
34 | N=c1scc(-c2ccccc2)n1/N=C/c1ccco1 | 1600
35 | CCOc1ccccc1NC(=O)CCC(=O)Nc1ccccc1OCC | 1630
36 | COc1cccc(N=Nc2c(C)[nH]n(-c3ccccc3)c2=O)c1 | 1730
37 | CCOc1ccc(CCNC(=O)CS(=O)Cc2nc(-c3ccccc3C)oc2C)cc1OCC (centres undefined) | 1560
38 | CS(=O)(=O)N(CC(=O)Nc1cccc(Br)c1)Cc1ccccc1 | 1600
39 | Cc1cccc(NC(=O)CSc2nc3ccccc3nc2N2CCCC2)c1C | 1670

From no. 25 to 26, as listed above:
Row | Structure (SMILES) | cell count [cells]
25 | c1ccc(-c2csc(NNC3=NCCCCC3)n2)cc1 | 1560
26 | CC(Sc1nnc(Nc2ccccc2)s1)C(=O)Nc1nc(-c2ccccc2)cs1 (centres undefined) | 1560
